Experimental data from publication doi:10.1101/2022.04.11.487493.
Results are given in words; binding and its absence hold for the method and conditions named. In cells and extracts the contact can be indirect. Some binding calls cover weakened binding; strength is not graded here. Sequences can lack the tags named with a protein.

T1: wild-type calcium sensing-receptor (CaSR), whole length, tagged with EGFP or myc, P41180
T1 chain: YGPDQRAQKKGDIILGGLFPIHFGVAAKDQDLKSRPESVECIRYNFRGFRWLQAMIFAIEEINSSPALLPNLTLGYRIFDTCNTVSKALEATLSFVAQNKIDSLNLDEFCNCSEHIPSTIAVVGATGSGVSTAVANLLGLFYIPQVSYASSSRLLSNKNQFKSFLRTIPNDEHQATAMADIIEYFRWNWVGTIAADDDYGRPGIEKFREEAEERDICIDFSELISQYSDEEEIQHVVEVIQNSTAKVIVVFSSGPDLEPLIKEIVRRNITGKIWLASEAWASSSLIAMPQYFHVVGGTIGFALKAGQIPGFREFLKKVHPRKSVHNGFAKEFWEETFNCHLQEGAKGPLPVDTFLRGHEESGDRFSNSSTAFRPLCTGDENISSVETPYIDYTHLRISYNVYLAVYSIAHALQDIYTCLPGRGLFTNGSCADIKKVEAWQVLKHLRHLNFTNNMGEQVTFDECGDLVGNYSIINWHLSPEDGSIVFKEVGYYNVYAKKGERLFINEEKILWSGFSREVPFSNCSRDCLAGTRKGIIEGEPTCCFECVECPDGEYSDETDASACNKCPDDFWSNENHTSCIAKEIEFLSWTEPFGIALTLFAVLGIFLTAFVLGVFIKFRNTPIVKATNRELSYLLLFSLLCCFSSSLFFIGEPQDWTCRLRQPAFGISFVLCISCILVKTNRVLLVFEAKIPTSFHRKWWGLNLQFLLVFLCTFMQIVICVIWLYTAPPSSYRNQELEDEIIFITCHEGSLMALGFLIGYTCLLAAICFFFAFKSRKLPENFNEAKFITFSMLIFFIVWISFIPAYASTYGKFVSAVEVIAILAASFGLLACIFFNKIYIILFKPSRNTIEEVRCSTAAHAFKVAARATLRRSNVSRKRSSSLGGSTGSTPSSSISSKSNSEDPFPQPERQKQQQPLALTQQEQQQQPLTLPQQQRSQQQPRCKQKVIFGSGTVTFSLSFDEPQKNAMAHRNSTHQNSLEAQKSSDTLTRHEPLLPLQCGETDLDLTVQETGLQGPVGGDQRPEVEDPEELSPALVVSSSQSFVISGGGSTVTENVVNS

T2: exon 5-deficient mutant calcium sensing-receptor (mCaSR), tagged with EGFP or myc (UniProt P41180)
T2 sequence: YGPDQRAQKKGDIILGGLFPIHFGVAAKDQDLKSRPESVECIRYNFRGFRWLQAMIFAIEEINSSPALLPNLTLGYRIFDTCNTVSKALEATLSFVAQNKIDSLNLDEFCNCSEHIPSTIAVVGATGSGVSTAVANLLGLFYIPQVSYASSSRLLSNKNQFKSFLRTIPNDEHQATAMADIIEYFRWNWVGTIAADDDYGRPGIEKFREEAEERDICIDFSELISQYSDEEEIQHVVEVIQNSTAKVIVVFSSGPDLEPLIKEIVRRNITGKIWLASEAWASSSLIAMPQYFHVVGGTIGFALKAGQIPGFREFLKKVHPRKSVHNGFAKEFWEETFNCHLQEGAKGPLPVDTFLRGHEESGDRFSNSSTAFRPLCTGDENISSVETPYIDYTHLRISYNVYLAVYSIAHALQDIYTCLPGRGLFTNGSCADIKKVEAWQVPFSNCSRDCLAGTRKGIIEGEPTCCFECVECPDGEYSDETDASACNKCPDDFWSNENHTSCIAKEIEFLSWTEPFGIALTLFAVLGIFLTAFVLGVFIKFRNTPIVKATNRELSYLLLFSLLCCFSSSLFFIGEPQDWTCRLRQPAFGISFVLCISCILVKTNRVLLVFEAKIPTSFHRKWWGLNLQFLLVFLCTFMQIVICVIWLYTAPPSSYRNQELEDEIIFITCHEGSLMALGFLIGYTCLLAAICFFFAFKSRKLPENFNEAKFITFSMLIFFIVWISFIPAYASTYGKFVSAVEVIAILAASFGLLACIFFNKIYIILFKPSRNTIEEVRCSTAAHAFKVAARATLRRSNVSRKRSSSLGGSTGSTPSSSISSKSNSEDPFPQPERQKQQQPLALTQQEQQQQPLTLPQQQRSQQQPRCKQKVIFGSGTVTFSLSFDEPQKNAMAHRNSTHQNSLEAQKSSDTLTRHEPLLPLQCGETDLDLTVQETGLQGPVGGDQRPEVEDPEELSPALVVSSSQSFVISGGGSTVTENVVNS

B1: wild-type calcium sensing-receptor (CaSR), whole length, tagged with EGFP or myc, P41180 20-1078 (receptor)
chain: T1 chain
B2: exon 5-deficient mutant calcium sensing-receptor (mCaSR), tagged with EGFP or myc (receptor, UniProt P41180)
chain: T2 sequence
B3: wild-type calcium sensing-receptor (CaSR), whole length, tagged with EGFP or myc (receptor, UniProt P41180 20-1078)
chain: T1 chain

Legend:
[1] = biological target: T1, wild-type calcium sensing-receptor …; test: co-IP; settings: remark: other sources report otherwise
[2] = biological target: T2, exon 5-deficient mutant calcium sensing-receptor (mCaSR), tagged with EGFP or myc; test: co-IP

binding [1]	binding [2]	Binder
binds	–	B1
–	binds	B2
–	binds	B3
